Assay results published in PMC10500460.
Like-named read-outs stand apart in the source and are kept apart here. No constants are given. Whether binding was seen depends on the method and setting. In cells and extracts the contact can be indirect. Some results given as binding are weak or reduced against the parent protein; the word gives no strength. For some assays here: Sequences can lack the tags named with a protein.

Sequences of proteins named here, by UniProt entry; tags and fusion partners are left off.
UniProt P03129: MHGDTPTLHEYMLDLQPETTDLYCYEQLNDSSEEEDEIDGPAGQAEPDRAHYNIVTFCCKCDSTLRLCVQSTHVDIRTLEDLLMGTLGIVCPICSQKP
UniProt Q8TEW0: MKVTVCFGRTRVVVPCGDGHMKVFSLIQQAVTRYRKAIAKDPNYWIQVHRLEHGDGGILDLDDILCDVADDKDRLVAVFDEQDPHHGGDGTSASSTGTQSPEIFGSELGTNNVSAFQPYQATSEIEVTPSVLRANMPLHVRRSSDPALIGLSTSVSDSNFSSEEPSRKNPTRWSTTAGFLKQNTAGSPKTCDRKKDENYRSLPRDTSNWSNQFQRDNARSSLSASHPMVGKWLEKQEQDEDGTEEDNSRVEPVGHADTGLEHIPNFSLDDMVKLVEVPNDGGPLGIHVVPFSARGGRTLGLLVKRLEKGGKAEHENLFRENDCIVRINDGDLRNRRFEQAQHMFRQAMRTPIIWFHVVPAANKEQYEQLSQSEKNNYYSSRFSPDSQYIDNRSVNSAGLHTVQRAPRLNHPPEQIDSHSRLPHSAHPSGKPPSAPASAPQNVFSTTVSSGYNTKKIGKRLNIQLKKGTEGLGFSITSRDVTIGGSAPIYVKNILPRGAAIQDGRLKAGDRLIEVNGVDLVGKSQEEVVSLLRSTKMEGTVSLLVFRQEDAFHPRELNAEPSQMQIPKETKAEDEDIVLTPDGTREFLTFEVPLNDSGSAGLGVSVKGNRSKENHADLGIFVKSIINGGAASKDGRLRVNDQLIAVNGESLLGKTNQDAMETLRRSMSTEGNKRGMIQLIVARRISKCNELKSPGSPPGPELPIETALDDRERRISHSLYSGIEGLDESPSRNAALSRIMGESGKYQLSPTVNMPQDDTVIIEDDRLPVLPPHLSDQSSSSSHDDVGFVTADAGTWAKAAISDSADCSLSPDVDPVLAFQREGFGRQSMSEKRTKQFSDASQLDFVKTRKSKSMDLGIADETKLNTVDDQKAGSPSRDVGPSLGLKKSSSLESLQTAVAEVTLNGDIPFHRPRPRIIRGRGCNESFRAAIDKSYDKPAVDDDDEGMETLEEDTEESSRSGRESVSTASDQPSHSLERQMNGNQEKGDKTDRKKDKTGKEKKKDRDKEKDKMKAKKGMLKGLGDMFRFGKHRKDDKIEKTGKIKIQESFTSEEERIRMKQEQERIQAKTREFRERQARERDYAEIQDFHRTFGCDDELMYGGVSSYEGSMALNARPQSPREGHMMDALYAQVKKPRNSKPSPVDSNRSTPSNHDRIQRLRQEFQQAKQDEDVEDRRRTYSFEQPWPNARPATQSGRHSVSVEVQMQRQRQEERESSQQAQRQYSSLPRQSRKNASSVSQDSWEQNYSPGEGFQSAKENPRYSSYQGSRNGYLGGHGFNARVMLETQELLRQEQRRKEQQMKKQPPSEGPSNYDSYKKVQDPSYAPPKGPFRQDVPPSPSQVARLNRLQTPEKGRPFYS
UniProt Q12923: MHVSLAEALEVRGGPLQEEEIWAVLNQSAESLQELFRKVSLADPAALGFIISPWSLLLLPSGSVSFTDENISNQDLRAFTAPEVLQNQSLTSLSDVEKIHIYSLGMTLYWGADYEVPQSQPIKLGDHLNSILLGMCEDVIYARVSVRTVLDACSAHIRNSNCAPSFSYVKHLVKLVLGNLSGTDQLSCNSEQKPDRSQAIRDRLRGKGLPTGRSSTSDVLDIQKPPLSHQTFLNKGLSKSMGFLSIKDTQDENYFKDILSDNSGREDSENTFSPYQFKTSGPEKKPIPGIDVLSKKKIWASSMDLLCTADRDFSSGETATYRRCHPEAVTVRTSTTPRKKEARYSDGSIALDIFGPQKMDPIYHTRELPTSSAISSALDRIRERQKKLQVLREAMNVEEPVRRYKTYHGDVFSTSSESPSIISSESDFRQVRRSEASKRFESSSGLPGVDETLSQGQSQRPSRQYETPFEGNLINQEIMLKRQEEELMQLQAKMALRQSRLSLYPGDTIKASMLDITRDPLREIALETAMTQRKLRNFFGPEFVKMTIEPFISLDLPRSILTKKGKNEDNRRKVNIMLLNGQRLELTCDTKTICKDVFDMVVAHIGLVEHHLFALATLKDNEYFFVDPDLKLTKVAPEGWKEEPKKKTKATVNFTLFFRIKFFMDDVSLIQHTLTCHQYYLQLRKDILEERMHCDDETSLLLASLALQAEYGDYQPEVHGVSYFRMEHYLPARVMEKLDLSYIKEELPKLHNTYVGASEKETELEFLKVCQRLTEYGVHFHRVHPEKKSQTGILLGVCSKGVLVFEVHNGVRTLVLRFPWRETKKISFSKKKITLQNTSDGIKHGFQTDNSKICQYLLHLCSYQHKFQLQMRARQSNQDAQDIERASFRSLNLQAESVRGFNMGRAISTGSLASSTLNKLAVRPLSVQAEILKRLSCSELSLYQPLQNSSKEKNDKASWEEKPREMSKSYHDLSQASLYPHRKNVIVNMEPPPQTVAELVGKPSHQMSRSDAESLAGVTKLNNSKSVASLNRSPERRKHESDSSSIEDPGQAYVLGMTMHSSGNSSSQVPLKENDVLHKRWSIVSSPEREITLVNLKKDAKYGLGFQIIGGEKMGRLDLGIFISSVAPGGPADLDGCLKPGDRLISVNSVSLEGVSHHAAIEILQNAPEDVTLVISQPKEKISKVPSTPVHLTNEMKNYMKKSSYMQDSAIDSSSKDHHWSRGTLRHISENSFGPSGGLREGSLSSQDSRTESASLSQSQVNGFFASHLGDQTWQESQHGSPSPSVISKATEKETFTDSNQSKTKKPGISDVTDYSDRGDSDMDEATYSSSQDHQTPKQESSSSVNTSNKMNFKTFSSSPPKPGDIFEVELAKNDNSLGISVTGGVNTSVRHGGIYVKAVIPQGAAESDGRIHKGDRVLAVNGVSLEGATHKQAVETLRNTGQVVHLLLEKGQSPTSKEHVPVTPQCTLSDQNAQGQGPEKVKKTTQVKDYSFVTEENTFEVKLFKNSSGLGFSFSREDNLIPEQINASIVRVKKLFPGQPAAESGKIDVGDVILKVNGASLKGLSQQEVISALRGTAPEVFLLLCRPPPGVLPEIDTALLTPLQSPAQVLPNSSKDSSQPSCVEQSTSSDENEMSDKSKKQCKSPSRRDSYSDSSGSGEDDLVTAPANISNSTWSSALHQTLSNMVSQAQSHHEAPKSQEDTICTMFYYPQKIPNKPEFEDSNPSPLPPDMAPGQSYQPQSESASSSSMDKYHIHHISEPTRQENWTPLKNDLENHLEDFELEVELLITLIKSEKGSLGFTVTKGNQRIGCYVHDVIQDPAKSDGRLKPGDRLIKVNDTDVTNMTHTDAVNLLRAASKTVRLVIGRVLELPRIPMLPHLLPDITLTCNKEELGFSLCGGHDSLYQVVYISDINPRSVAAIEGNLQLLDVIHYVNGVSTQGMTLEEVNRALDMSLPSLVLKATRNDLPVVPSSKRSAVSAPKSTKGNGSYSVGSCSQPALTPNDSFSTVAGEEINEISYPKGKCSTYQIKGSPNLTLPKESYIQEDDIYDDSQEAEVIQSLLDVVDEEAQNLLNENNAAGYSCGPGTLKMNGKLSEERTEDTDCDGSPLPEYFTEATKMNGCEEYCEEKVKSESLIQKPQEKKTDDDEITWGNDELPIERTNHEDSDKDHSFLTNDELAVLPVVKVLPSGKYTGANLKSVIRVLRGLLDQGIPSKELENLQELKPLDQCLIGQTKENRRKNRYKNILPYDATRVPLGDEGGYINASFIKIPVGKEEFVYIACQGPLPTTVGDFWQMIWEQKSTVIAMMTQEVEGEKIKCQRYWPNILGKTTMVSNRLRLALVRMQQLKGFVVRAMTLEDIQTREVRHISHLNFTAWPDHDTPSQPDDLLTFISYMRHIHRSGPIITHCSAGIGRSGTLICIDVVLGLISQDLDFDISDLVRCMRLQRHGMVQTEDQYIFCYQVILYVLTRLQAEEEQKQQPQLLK
UniProt P84092: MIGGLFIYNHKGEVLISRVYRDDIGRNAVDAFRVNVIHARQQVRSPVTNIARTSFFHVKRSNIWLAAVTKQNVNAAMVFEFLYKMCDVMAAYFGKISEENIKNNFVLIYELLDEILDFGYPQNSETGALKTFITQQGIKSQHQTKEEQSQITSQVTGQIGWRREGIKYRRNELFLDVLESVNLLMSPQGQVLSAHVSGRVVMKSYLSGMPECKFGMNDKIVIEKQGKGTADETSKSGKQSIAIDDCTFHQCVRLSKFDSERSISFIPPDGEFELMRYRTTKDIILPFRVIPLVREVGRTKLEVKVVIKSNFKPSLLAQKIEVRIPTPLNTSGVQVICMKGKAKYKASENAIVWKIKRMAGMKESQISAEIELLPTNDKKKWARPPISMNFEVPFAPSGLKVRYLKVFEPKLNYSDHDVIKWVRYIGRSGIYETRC
UniProt P46940: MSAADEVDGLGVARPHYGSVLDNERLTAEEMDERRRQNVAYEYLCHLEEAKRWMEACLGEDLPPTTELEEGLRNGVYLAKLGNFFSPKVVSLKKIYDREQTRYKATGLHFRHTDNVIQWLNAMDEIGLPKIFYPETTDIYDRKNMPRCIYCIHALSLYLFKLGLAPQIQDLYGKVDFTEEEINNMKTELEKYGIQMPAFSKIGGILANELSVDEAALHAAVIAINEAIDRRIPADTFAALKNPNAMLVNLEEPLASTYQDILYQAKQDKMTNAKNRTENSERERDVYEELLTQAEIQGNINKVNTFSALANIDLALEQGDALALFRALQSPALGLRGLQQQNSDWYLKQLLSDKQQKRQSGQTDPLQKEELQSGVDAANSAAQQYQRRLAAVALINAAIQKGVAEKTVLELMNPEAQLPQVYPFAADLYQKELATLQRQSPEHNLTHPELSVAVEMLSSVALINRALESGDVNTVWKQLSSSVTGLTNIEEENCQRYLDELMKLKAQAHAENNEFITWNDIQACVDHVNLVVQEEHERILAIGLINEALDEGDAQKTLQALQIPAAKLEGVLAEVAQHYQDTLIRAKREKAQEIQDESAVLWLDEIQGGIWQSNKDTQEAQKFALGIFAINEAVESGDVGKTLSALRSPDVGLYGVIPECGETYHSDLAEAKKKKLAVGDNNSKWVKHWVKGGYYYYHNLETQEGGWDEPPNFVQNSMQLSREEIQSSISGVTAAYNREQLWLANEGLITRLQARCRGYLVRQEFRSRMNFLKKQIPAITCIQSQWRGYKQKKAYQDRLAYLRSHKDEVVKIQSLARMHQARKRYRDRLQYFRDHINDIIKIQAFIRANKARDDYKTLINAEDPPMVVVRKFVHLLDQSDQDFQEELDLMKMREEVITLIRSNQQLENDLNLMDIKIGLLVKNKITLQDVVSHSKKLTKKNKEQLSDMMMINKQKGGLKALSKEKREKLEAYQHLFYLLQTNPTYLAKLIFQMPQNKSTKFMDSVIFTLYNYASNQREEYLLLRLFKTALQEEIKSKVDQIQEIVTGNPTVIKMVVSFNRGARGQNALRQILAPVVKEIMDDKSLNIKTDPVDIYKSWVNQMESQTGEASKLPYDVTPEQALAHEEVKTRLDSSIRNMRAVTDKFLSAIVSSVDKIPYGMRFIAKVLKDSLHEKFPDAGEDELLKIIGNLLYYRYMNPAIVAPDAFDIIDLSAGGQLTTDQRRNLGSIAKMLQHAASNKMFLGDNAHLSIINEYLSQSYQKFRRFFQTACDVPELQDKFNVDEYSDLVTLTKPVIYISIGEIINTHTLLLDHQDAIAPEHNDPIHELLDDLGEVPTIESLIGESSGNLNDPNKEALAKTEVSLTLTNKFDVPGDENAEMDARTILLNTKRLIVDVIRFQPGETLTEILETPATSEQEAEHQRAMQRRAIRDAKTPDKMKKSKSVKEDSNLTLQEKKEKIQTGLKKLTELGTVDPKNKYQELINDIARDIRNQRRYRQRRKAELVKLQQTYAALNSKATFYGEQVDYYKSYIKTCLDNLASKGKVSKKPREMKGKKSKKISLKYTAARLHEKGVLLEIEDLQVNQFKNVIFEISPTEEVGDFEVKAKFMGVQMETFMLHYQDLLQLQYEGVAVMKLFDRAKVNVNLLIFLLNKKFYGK

Assays:
[1] = target: GST-E7 fusion protein phosphorylated with CKI and GSK3 kinases (human papillomavirus type 16) (UniProt P03129); test: pull-down; GST fusion proteins bound to glutathione resin incubated 3 h at 4 °C with extracts of transfected HEK293 cells (lysis buffer 50 mM HEPES pH 7.4, 150 mM NaCl, 1 mM MgCl2, 1% Triton X-100); bound proteins by Western blot; for Fig. 6A GST-E7 was first phosphorylated with CKI and GSK3 in presence of regular ATP; only the target purified
[2] = target: 16 E7 19–20 phospho-peptide (human papillomavirus type 16); test: pull-down; biotinylated peptides bound to streptavidin-conjugated beads, incubated with extracts of transfected HEK293 cells; bound proteins by Western blot; only the target purified
[3] = target: GST-tagged HPV16 E7 wild type (human papillomavirus type 16) (UniProt P03129); test: pull-down; GST fusion proteins bound to glutathione resin incubated 3 h at 4 °C with extracts of transfected HEK293 cells (lysis buffer 50 mM HEPES pH 7.4, 150 mM NaCl, 1 mM MgCl2, 1% Triton X-100); bound proteins by Western blot; for Fig. 6A GST-E7 was first phosphorylated with CKI and GSK3 in presence of regular ATP; only the target purified
[4] = target: C-terminal FLAG/HA-tagged HPV16 E7 wild type (human papillomavirus type 16) (UniProt P03129); test: co-IP; HEK293 cells transfected with pRb-HA and FLAG/HA-tagged HPV16 E7; lysates incubated with anti-FLAG agarose beads 3 h at 4 °C; Western blot
[5] = target: 16 E7 19–20 peptide (human papillomavirus type 16); test: pull-down; biotinylated peptides bound to streptavidin-conjugated beads, incubated with extracts of transfected HEK293 cells; bound proteins by Western blot; only the target purified
[6] = target: GST-E7 fusion protein phosphorylated with CKI and GSK3 kinases (human papillomavirus type 16) (UniProt P03129); test: pull-down; GST fusion proteins bound to glutathione resin incubated 3 h at 4 °C with extracts of transfected HEK293 cells (lysis buffer 50 mM HEPES pH 7.4, 150 mM NaCl, 1 mM MgCl2, 1% Triton X-100); bound proteins by Western blot; for Fig. 6A GST-E7 was first phosphorylated with CKI and GSK3 in presence of regular ATP; only the target purified; remark: listed apart in the source
[7] = target: GST-tagged HPV16 E7 wild type (human papillomavirus type 16) (UniProt P03129); test: as above; remark: listed apart in the source
[8] = target: GST-tagged HPV16 E7 wild type (human papillomavirus type 16) (UniProt P03129); test: pull-down; GST fusion proteins incubated 2 h at 4 °C with in vitro translated, [35S]-methionine-labelled protein; beads washed with lysis buffer; SDS-PAGE and autoradiography; only the target purified

Molecule: PARD3-Myc (from UniProt Q8TEW0 1-1356)
- binding [1]: binds

Molecule: PTPN13-HA (from UniProt Q12923 1-2485)
- binding [1]: binds

Molecule: APμ2-HA (from UniProt P84092 1-435)
- binding [2]: binds
- binding [1]: binds

Molecule: IQGAP1-Myc (from UniProt P46940 1-1657)
- binding [1]: binds
- binding [3]: binds

B1: HA-tagged pRb (protein, UniProt P06400 1-928)
chain: MPPKTPRKTAATAAAAAAEPPAPPPPPPPEEDPEQDSGPEDLPLVRLEFEETEEPDFTALCQKLKIPDHVRERAWLTWEKVSSVDGVLGGYIQKKKELWGICIFIAAVDLDEMSFTFTELQKNIEISVHKFFNLLKEIDTSTKVDNAMSRLLKKYDVLFALFSKLERTCELIYLTQPSSSISTEINSALVLKVSWITFLLAKGEVLQMEDDLVISFQLMLCVLDYFIKLSPPMLLKEPYKTAVIPINGSPRTPRRGQNRSARIAKQLENDTRIIEVLCKEHECNIDEVKNVYFKNFIPFMNSLGLVTSNGLPEVENLSKRYEEIYLKNKDLDARLFLDHDKTLQTDSIDSFETQRTPRKSNLDEEVNVIPPHTPVRTVMNTIQQLMMILNSASDQPSENLISYFNNCTVNPKESILKRVKDIGYIFKEKFAKAVGQGCVEIGSQRYKLGVRLYYRVMESMLKSEEERLSIQNFSKLLNDNIFHMSLLACALEVVMATYSRSTSQNLDSGTDLSFPWILNVLNLKAFDFYKVIESFIKAEGNLTREMIKHLERCEHRIMESLAWLSDSPLFDLIKQSKDREGPTDHLESACPLNLPLQNNHTAADMYLSPVRSPKKKGSTTRVNSTANAETQATSAFQTQKPLKSTSLSLFYKKVYRLAYLRLNTLCERLLSEHPELEHIIWTLFQHTLQNEYELMRDRHLDQIMMCSMYGICKVKNIDLKFKIIVTAYKDLPHAVQETFKRVLIKEEEYDSIIVFYNSVFMQRLKTNILQYASTRPPTLSPIPHIPRSPYKFPSSPLRIPGGNIYISPLKSPYKISEGLPTPTKMTPRSRILVSIGESFGTSEKFQKINQMVCNSDRVLKRSAEGSNPPKPLKKLRFDIEGSDEADGSKHLPGESKFQQKLAEMTSTRTRMQKQKMNDSMDTSNKEEK
- binding [4]: binds
- binding [5]: binds
- binding [2]: binds
- binding [6]: binds
- binding [7]: binds

B2: Radio-labelled, in vitro translated pRb (protein, UniProt P06400 1-928)
chain: MPPKTPRKTAATAAAAAAEPPAPPPPPPPEEDPEQDSGPEDLPLVRLEFEETEEPDFTALCQKLKIPDHVRERAWLTWEKVSSVDGVLGGYIQKKKELWGICIFIAAVDLDEMSFTFTELQKNIEISVHKFFNLLKEIDTSTKVDNAMSRLLKKYDVLFALFSKLERTCELIYLTQPSSSISTEINSALVLKVSWITFLLAKGEVLQMEDDLVISFQLMLCVLDYFIKLSPPMLLKEPYKTAVIPINGSPRTPRRGQNRSARIAKQLENDTRIIEVLCKEHECNIDEVKNVYFKNFIPFMNSLGLVTSNGLPEVENLSKRYEEIYLKNKDLDARLFLDHDKTLQTDSIDSFETQRTPRKSNLDEEVNVIPPHTPVRTVMNTIQQLMMILNSASDQPSENLISYFNNCTVNPKESILKRVKDIGYIFKEKFAKAVGQGCVEIGSQRYKLGVRLYYRVMESMLKSEEERLSIQNFSKLLNDNIFHMSLLACALEVVMATYSRSTSQNLDSGTDLSFPWILNVLNLKAFDFYKVIESFIKAEGNLTREMIKHLERCEHRIMESLAWLSDSPLFDLIKQSKDREGPTDHLESACPLNLPLQNNHTAADMYLSPVRSPKKKGSTTRVNSTANAETQATSAFQTQKPLKSTSLSLFYKKVYRLAYLRLNTLCERLLSEHPELEHIIWTLFQHTLQNEYELMRDRHLDQIMMCSMYGICKVKNIDLKFKIIVTAYKDLPHAVQETFKRVLIKEEEYDSIIVFYNSVFMQRLKTNILQYASTRPPTLSPIPHIPRSPYKFPSSPLRIPGGNIYISPLKSPYKISEGLPTPTKMTPRSRILVSIGESFGTSEKFQKINQMVCNSDRVLKRSAEGSNPPKPLKKLRFDIEGSDEADGSKHLPGESKFQQKLAEMTSTRTRMQKQKMNDSMDTSNKEEK
modifications: radiolabelled with [35S]-methionine
- binding [8]: binds

B3: PTPN14-V5 (protein, UniProt Q15678 1-1187)
chain: MPFGLKLRRTRRYNVLSKNCFVTRIRLLDSNVIECTLSVESTGQECLEAVAQRLELRETHYFGLWFLSKSQQARWVELEKPLKKHLDKFANEPLLFFGVMFYVPNVSWLQQEATRYQYYLQVKKDVLEGRLRCTLDQVIRLAGLAVQADFGDYNQFDSQDFLREYVLFPMDLALEEAVLEELTQKVAQEHKAHSGILPAEAELMYINEVERLDGFGQEIFPVKDNHGNCVHLGIFFMGIFVRNRIGRQAVIYRWNDMGNITHNKSTILVELINKEETALFHTDDIENAKYISRLFATRHKFYKQNKICTEQSNSPPPIRRQPTWSRSSLPRQQPYILPPVHVQCGEHYSETHTSQDSIFHGNEEALYCNSHNSLDLNYLNGTVTNGSVCSVHSVNSLNCSQSFIQASPVSSNLSIPGSDIMRADYIPSHRHSAIIVPSYRPTPDYETVMRQMKRGILHTDSQSQSLRNLNIINTHAYNQPEDLVYSQPEMRERHPYTVPYGPQGVYSNKLVSPSDQRNPKNNVVPSKPGASAISHTVSTPELANMQLQGSHNYSTAHMLKNYLFRPPPPYPRPRPATSTPDLASHRHKYVSGSSPDLVTRKVQLSVKTFQEDSSPVVHQSLQEVSEPLTATKHHGTVNKRHSLEVMNSMVRGMEAMTLKSLHLPMARRNTLREQGPPEEGSGSHEVPQLPQYHHKKTFSDATMLIHSSESEEEEEEAPESVPQIPMLREKMEYSAQLQAALARIPNKPPPEYPGPRKSVSNGALRQDQASLPPAMARARVLRHGPAKAISMSRTDPPAVNGASLGPSISEPDLTSVKERVKKEPVKERPVSEMFSLEDSIIEREMMIRNLEKQKMAGLEAQKRPLMLAALNGLSVARVSGREENRVDATRVPMDERFRTLKKKLEEGMVFTEYEQIPKKKANGIFSTAALPENAERSRIREVVPYEENRVELIPTKENNTGYINASHIKVVVGGAEWHYIATQGPLPHTCHDFWQMVWEQGVNVIAMVTAEEEGGRTKSHRYWPKLGSKHSSATYGKFKVTTKFRTDSVCYATTGLKVKHLLSGQERTVWHLQYTDWPDHGCPEDVQGFLSYLEEIQSVRRHTNSMLEGTKNRHPPIVVHCSAGVGRTGVLILSELMIYCLEHNEKVEVPMMLRLLREQRMFMIQTIAQYKFVYQVLIQFLQNSRLI
- binding [6]: binds
- binding [7]: binds
